Measurements from patent publication US8597646B2, “Methods and compositons featuring TGF-beta antagonists for the treatment of marfan syndrome and associated disorders” (The Johns Hopkins University, priority 2005, dated 2013).

System: mdx mice
Assay: Serum creatine kinase levels in mdx mice
Type: in vivo, mouse
Settings: n=6 each group, monopotassium salt

With CCCCc1nc(Cl)c(CO)n1Cc1ccc(-c2ccccc2-c2nnn[nH]2)cc1.[K] [losartan, 2-butyl-4-chloro-1-[p-(o-1H-tetrazol-5-ylphenyl)benzyl]imidazole-5-methanol monopotassium salt] the “Creatine kinase levels in the serum, treated versus untreated” value was “did not show any significant differences; also recorded: no statistical significance”.

“Also recorded” adds a separate entry of the source.
